Substitutions are numbered along the chain they refer to. The list shows a part of the results. For some of these results: At the low end of the ranking, values are background and their order means little.
Columns and labels:
Settings in all cases: yeast three-hybrid, YBZ-1, SC-Leu-His + 0.5 mM 3-AT, 4 days
[1] = target: T1, PUM1 PUF domain R5-GRF C1007G + Q1011F (Homo sapiens) (UniProt Q14671)
T1 sequence: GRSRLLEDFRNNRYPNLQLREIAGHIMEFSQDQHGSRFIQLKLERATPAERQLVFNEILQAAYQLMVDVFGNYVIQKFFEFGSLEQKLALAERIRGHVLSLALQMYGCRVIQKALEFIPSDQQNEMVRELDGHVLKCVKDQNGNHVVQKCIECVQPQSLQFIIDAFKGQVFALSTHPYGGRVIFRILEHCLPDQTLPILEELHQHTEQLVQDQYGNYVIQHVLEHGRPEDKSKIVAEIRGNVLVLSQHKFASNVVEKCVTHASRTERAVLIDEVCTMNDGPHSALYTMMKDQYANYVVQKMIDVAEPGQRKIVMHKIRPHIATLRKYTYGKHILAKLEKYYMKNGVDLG

[2] = target: T2, PUM1 PUF domain R5-GRL C1007G + Q1011L (Homo sapiens) (UniProt Q14671)
T2 sequence: T1 sequence with F184L

[3] = target: T3, PUM1 PUF domain R5-GRP C1007G + Q1011P (Homo sapiens) (UniProt Q14671)
T3 sequence: T1 sequence with F184P

[4] = target: T4, PUM1 PUF domain R5-GRV C1007G + Q1011V (Homo sapiens) (UniProt Q14671)
T4 sequence: T1 sequence with F184V

[5] = target: T5, PUM1 PUF domain R5-GRW C1007G + Q1011W (Homo sapiens) (UniProt Q14671)
T5 sequence: T1 sequence with F184W

[6] = target: T6, PUM1 PUF domain R5-GSE C1007G + R1008S + Q1011E (Homo sapiens) (UniProt Q14671)
T6 sequence: T1 sequence with R181S, F184E

[7] = target: T7, PUM1 PUF domain R5-GSK C1007G + R1008S + Q1011K (Homo sapiens) (UniProt Q14671)
T7 sequence: T1 sequence with R181S, F184K

[8] = target: T8, PUM1 PUF domain R5-GTE C1007G + R1008T + Q1011E (UniProt Q14671)
T8 sequence: T1 sequence with R181T, F184E

[9] = target: T9, PUM1 PUF domain R5-GVD C1007G + R1008V + Q1011D (Homo sapiens) (UniProt Q14671)
T9 sequence: T1 sequence with R181V, F184D

[10] = target: T10, PUM1 PUF domain R5-GWL C1007G + R1008W + Q1011L (Homo sapiens) (UniProt Q14671)
T10 sequence: T1 sequence with R181W, F184L

[11] = target: T11, PUM1 PUF domain R5-GWY C1007G + R1008W + Q1011Y (UniProt Q14671)
T11 sequence: T1 sequence with R181W, F184Y

[12] = target: T12, PUM1 PUF domain R5-HLK C1007H + R1008L + Q1011K (UniProt Q14671)
T12 sequence: T1 sequence with G180H, R181L, F184K

[13] = target: T13, PUM1 PUF domain R5-IFM C1007I + R1008F + Q1011M (UniProt Q14671)
T13 sequence: T1 sequence with G180I, R181F, F184M

[14] = target: T14, PUM1 PUF domain R5-IRP C1007I + Q1011P (UniProt Q14671)
T14 sequence: T1 sequence with G180I, F184P

[15] = target: T15, PUM1 PUF domain R5-IYM C1007I + R1008Y + Q1011M (UniProt Q14671)
T15 sequence: T1 sequence with G180I, R181Y, F184M

[16] = target: T16, PUM1 PUF domain R5-LFQ C1007L + R1008F (Homo sapiens) (UniProt Q14671)
T16 sequence: T1 sequence with G180L, R181F, F184Q

[17] = target: T17, PUM1 PUF domain R5-LFR C1007L + R1008F + Q1011R (Homo sapiens) (UniProt Q14671)
T17 sequence: T1 sequence with G180L, R181F, F184R

[18] = target: T18, PUM1 PUF domain R5-LFS C1007L + R1008F + Q1011S (UniProt Q14671)
T18 sequence: T1 sequence with G180L, R181F, F184S

[19] = target: T19, PUM1 PUF domain R5-LHC C1007L + R1008H + Q1011C (Homo sapiens) (UniProt Q14671)
T19 sequence: T1 sequence with G180L, R181H, F184C

[20] = target: T20, PUM1 PUF domain R5-LLR C1007L + R1008L + Q1011R (UniProt Q14671)
T20 sequence: T1 sequence with G180L, R181L, F184R

[21] = target: T21, PUM1 PUF domain R5-LNA C1007L + R1008N + Q1011A (UniProt Q14671)
T21 sequence: T1 sequence with G180L, R181N, F184A

[22] = target: T22, PUM1 PUF domain R5-LNS C1007L + R1008N + Q1011S (UniProt Q14671)
T22 sequence: T1 sequence with G180L, R181N, F184S

[23] = target: T23, PUM1 PUF domain R5-LNT C1007L + R1008N + Q1011T (UniProt Q14671)
T23 sequence: T1 sequence with G180L, R181N, F184T

[24] = target: T24, PUM1 PUF domain R5-LWA C1007L + R1008W + Q1011A (Homo sapiens) (UniProt Q14671)
T24 sequence: T1 sequence with G180L, R181W, F184A

[25] = target: T25, PUM1 PUF domain R5-LWG C1007L + R1008W + Q1011G (Homo sapiens) (UniProt Q14671)
T25 sequence: T1 sequence with G180L, R181W, F184G

[26] = target: T26, PUM1 PUF domain R5-LYA C1007L + R1008Y + Q1011A (UniProt Q14671)
T26 sequence: T1 sequence with G180L, R181Y, F184A

[27] = target: T27, PUM1 PUF domain R5-LYC C1007L + R1008Y + Q1011C (UniProt Q14671)
T27 sequence: T1 sequence with G180L, R181Y, F184C

[28] = target: T28, PUM1 PUF domain R5-LYD C1007L + R1008Y + Q1011D (UniProt Q14671)
T28 sequence: T1 sequence with G180L, R181Y, F184D

[29] = target: T29, PUM1 PUF domain R5-LYG C1007L + R1008Y + Q1011G (Homo sapiens) (UniProt Q14671)
T29 sequence: T1 sequence with G180L, R181Y, F184G

[30] = target: T30, PUM1 PUF domain R5-LYL C1007L + R1008Y + Q1011L (UniProt Q14671)
T30 sequence: T1 sequence with G180L, R181Y, F184L

[31] = target: T31, PUM1 PUF domain R5-LYM C1007L + R1008Y + Q1011M (UniProt Q14671)
T31 sequence: T1 sequence with G180L, R181Y, F184M

[32] = target: T32, PUM1 PUF domain R5-LYS C1007L + R1008Y + Q1011S (Homo sapiens) (UniProt Q14671)
T32 sequence: T1 sequence with G180L, R181Y, F184S

[33] = target: T33, PUM1 PUF domain R5-LYV C1007L + R1008Y + Q1011V (UniProt Q14671)
T33 sequence: T1 sequence with G180L, R181Y, F184V

[34] = target: T34, PUM1 PUF domain R5-MKC C1007M + R1008K + Q1011C (Homo sapiens) (UniProt Q14671)
T34 sequence: T1 sequence with G180M, R181K, F184C

[35] = target: T35, PUM1 PUF domain R5-MRE C1007M + Q1011E (Homo sapiens) (UniProt Q14671)
T35 sequence: T1 sequence with G180M, F184E

[36] = target: T36, PUM1 PUF domain R5-MRV C1007M + Q1011V (Homo sapiens) (UniProt Q14671)
T36 sequence: T1 sequence with G180M, F184V

[37] = target: T37, PUM1 PUF domain R5-NAG C1007N + R1008A + Q1011G (UniProt Q14671)
T37 sequence: T1 sequence with G180N, R181A, F184G

[38] = target: T38, PUM1 PUF domain R5-NAV C1007N + R1008A + Q1011V (Homo sapiens) (UniProt Q14671)
T38 sequence: T1 sequence with G180N, R181A, F184V

[39] = target: T39, PUM1 PUF domain R5-NDG C1007N + R1008D + Q1011G (UniProt Q14671)
T39 sequence: T1 sequence with G180N, R181D, F184G

[40] = target: T40, PUM1 PUF domain R5-NDI C1007N + R1008D + Q1011I (UniProt Q14671)
T40 sequence: T1 sequence with G180N, R181D, F184I

## GGCUAGAACUAGUGGAUCCCCCGGCGCCCGGCGGCUCGAGCCCGGGUAAGUGUCAAUAGUCUGCAUGCCGCCGGGCGCCAUGCCUGCAGGUCGACUCUAGAAAACAUG
[1]
  binding signal (log2 enrichment (interaction score)): -0.8
[2]
  binding signal (log2 enrichment (interaction score)): 0.23
[3]
  binding signal (log2 enrichment (interaction score)): 0.05
[4]
  binding signal (log2 enrichment (interaction score)): -0.08
[5]
  binding signal (log2 enrichment (interaction score)): 0.49
[6]
  binding signal (log2 enrichment (interaction score)): -2.59
[7]
  binding signal (log2 enrichment (interaction score)): -0.95
[8]
  binding signal (log2 enrichment (interaction score)): < -7.87
[9]
  binding signal (log2 enrichment (interaction score)): 0.22
[10]
  binding signal (log2 enrichment (interaction score)): -0.51
[11]
  binding signal (log2 enrichment (interaction score)): -5.01
[12]
  binding signal (log2 enrichment (interaction score)): < -6.06
[13]
  binding signal (log2 enrichment (interaction score)): < -7.98
[14]
  binding signal (log2 enrichment (interaction score)): < -5.49
[15]
  binding signal (log2 enrichment (interaction score)): < -5.47
[16]
  binding signal (log2 enrichment (interaction score)): -1.43
[17]
  binding signal (log2 enrichment (interaction score)): -0.06
[18]
  binding signal (log2 enrichment (interaction score)): -2.91
[19]
  binding signal (log2 enrichment (interaction score)): 0.11
[20]
  binding signal (log2 enrichment (interaction score)): -3.69
[21]
  binding signal (log2 enrichment (interaction score)): < -5.36
[22]
  binding signal (log2 enrichment (interaction score)): < -6.66
[23]
  binding signal (log2 enrichment (interaction score)): < -6.07
[24]
  binding signal (log2 enrichment (interaction score)): -0.75
[25]
  binding signal (log2 enrichment (interaction score)): -0.45
[26]
  binding signal (log2 enrichment (interaction score)): -4.93
[27]
  binding signal (log2 enrichment (interaction score)): -2.31
[28]
  binding signal (log2 enrichment (interaction score)): -3.87
[29]
  binding signal (log2 enrichment (interaction score)): -1.45
[30]
  binding signal (log2 enrichment (interaction score)): < -8.41
[31]
  binding signal (log2 enrichment (interaction score)): < -6.92
[32]
  binding signal (log2 enrichment (interaction score)): -1.9
[33]
  binding signal (log2 enrichment (interaction score)): -4.69
[34]
  binding signal (log2 enrichment (interaction score)): -2.81
[35]
  binding signal (log2 enrichment (interaction score)): -0.4
[36]
  binding signal (log2 enrichment (interaction score)): 0.39
[37]
  binding signal (log2 enrichment (interaction score)): -4.14
[38]
  binding signal (log2 enrichment (interaction score)): -2.81
[39]
  binding signal (log2 enrichment (interaction score)): < -6.59
[40]
  binding signal (log2 enrichment (interaction score)): -4.28
